{"source": "PubChem BioAssay AID1159584 | Peter MacCallum Cancer Centre – 2016", "test": "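Genes whose loss is lethal only together with E-cadherin loss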 (primary screen)", "cell system": "human MCF10A breast epithelial cells, parental and CDH1-null", "knock-down reagent": "siRNA against human genes", "measured": "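Cell viability by CellTiter-Glo ATP luminescence, each line scaled to the mean of mock wells across plates, then CDH1-null over parental ratio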", "reading the numbers": "CDH1-null / parental viability ratio: higher = CDH1-null cells survive relatively better than parental; CDH1-null viability vs mock: higher = more viable CDH1-null cells", "units": "CDH1-null viability vs mock in fraction of mock", "note": "The deposit covers about 18,000 reagents; below is a part drawn at random. Further read-outs or replicates are left out here. The record does not give: the amount of reagent, the time to read-out."}
{"gene":"PCGF3 (polycomb group ring finger 3)","CDH1-null / parental viability ratio":1.03,"CDH1-null viability vs mock":0.96}
{"gene":"AMT (aminomethyltransferase)","CDH1-null / parental viability ratio":1.17,"CDH1-null viability vs mock":1.03}
{"gene":"BSG (basigin (Ok blood group))","CDH1-null / parental viability ratio":0.83,"CDH1-null viability vs mock":0.6}
{"gene":"KLHL10 (kelch like family member 10)","CDH1-null / parental viability ratio":0.75,"CDH1-null viability vs mock":0.82}
{"gene":"LNX1 (ligand of numb-protein X 1)","CDH1-null / parental viability ratio":0.64,"CDH1-null viability vs mock":0.5}
{"gene":"ENG (endoglin)","CDH1-null / parental viability ratio":1.12,"CDH1-null viability vs mock":0.96}
{"gene":"ECM2 (extracellular matrix protein 2)","CDH1-null / parental viability ratio":1.07,"CDH1-null viability vs mock":1.11}
{"gene":"UBAC2 (UBA domain containing 2)","CDH1-null / parental viability ratio":1,"CDH1-null viability vs mock":0.78}
{"gene":"COPA (coat protein complex I subunit alpha)","CDH1-null / parental viability ratio":1.15,"CDH1-null viability vs mock":0.23}
{"gene":"CDH2 (cadherin 2)","CDH1-null / parental viability ratio":1.23,"CDH1-null viability vs mock":0.76}
{"gene":"APOL1 (apolipoprotein L1)","CDH1-null / parental viability ratio":0.76,"CDH1-null viability vs mock":0.42}
{"gene":"HBS1L (HBS1 like translational GTPase)","CDH1-null / parental viability ratio":0.98,"CDH1-null viability vs mock":0.92}
{"gene":"ALOX5AP (arachidonate 5-lipoxygenase activating protein)","CDH1-null / parental viability ratio":0.88,"CDH1-null viability vs mock":1.04}
{"gene":"ANP32D (acidic nuclear phosphoprotein 32 family member D)","CDH1-null / parental viability ratio":0.96,"CDH1-null viability vs mock":0.74}
{"gene":"BORCS7 (BLOC-1 related complex subunit 7)","CDH1-null / parental viability ratio":1.55,"CDH1-null viability vs mock":1.15}
{"gene":"KLHL24 (kelch like family member 24)","CDH1-null / parental viability ratio":0.98,"CDH1-null viability vs mock":0.63}
{"gene":"HNF4A (hepatocyte nuclear factor 4 alpha)","CDH1-null / parental viability ratio":1,"CDH1-null viability vs mock":0.9}
{"gene":"FAM86C1P (family with sequence similarity 86 member C1, pseudogene)","CDH1-null / parental viability ratio":1.22,"CDH1-null viability vs mock":0.66}
{"gene":"KRT82 (keratin 82)","CDH1-null / parental viability ratio":1.04,"CDH1-null viability vs mock":0.73}
{"gene":"PRAMEF7 (PRAME family member 7)","CDH1-null / parental viability ratio":0.72,"CDH1-null viability vs mock":0.62}
{"gene":"RANBP9 (RAN binding protein 9)","CDH1-null / parental viability ratio":0.87,"CDH1-null viability vs mock":0.52}
{"gene":"ZNF707 (zinc finger protein 707)","CDH1-null / parental viability ratio":1.3,"CDH1-null viability vs mock":0.92}
{"gene":"EFHB (EF-hand domain family member B)","CDH1-null / parental viability ratio":0.94,"CDH1-null viability vs mock":0.81}
{"gene":"PDCD2 (programmed cell death 2)","CDH1-null / parental viability ratio":0.69,"CDH1-null viability vs mock":0.52}
